From PMC5617402
Results are given in words; binding and its absence hold for the method and conditions named. In cells and extracts the contact can be indirect. Some binding calls cover weakened binding; strength is not graded here.

Sequences of proteins named here, by UniProt entry; tags and fusion partners are left off.
UniProt Q8N6T7: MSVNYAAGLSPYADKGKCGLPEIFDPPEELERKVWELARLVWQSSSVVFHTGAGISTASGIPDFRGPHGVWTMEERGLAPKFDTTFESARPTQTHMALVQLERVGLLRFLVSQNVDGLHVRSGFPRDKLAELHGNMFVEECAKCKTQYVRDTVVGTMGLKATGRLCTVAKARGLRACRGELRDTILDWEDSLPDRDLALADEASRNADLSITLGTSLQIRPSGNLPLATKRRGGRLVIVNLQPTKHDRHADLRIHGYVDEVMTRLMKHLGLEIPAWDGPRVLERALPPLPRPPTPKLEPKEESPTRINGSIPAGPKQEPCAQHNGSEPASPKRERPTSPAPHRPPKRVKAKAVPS
UniProt O95863: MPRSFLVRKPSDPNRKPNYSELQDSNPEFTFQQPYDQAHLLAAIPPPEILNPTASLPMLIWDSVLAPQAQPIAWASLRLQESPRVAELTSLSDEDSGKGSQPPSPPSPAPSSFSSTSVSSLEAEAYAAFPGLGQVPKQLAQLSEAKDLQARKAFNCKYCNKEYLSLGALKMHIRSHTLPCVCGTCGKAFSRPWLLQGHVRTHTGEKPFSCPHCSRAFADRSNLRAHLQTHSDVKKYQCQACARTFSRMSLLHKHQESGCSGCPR
UniProt P84022: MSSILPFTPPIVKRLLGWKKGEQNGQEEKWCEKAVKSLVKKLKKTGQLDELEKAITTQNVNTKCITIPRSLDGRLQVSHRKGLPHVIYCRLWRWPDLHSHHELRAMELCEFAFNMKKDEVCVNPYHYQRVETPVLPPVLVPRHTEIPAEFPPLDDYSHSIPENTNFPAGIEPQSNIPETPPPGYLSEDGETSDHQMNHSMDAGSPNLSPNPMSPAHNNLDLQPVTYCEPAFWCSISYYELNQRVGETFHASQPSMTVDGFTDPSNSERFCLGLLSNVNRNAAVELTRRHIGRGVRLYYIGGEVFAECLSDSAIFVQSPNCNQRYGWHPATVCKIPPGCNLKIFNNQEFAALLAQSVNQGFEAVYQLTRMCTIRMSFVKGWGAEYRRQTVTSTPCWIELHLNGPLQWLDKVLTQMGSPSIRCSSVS

Tests used:
[1] = biological target: Sirtuin 6 (human (endogenous in A549)) (UniProt Q8N6T7); test: co-IP; A549 cells treated with or without TGF-β1 (5 ng/ml) for 15 and 60 min; 400 μg total protein (NP-40 lysis buffer) precipitated with rabbit anti-Sirt6 antibody on protein G magnetic beads, Western blot
[2] = biological target: Snail1 (human (endogenous in A549)) (UniProt O95863); test: co-IP; A549 cells transfected with ad-GFP or ad-H133Y (catalytically inactive Sirt6), with or without TGF-β1 (5 ng/ml) for 24 h; total protein precipitated with rabbit anti-Snail1 antibody on protein G magnetic beads, Western blot
[3] = biological target: Snail1 (human (endogenous in A549)) (UniProt O95863); test: condition: only with Sirt6 overexpression (ad-Sirt6); co-IP; A549 cells overexpressing wild-type Sirt6 (ad-Sirt6), with TGF-β1 (5 ng/ml) for 24 h; total protein precipitated with rabbit anti-Snail1 antibody on protein G magnetic beads, Western blot

Row | binding [1] | binding [2] | binding [3] | Substance
1 | binds | binds | no binding | Smad3 (from UniProt P84022 1-425)
2 | binds | – | – | Snail1 (from UniProt O95863 1-264)
